In paper doi:10.1101/2020.01.19.911891:
Results are given in words; binding and its absence hold for the method and conditions named. Binding seen in cells or lysates may run through a third protein. Some entries that bind do so weakly or less than the wild type. Where a sequence is shown, tags or fusion partners need not be part of it.

Sequences of proteins named here, by UniProt entry; tags and fusion partners are left off.
UniProt Q9UK41: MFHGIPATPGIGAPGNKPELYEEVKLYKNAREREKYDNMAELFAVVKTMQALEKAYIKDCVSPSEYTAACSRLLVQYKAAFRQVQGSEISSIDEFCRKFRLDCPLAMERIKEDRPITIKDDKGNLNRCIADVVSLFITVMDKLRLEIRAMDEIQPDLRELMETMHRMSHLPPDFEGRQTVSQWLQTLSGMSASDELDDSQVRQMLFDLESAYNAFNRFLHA

Biological target: GST-VPS28 (human) (UniProt Q9UK41)
Test: pull-down

binding	Binder
binds	MYC-AKTIP (protein, UniProt Q9H8T0 1-292) MNPFWSMSTSSVRKRSEGEEKTLTGDVKTSPPRTAPKKQLPSIPKNALPITKPTSPAPAAQSTNGTHASYGPFYLEYSLLAEFTLVVKQKLPGVYVQPSYRSALMWFGVIFIRHGLYQDGVFKFTVYIPDNYPDGDCPRLVFDIPVFHPLVDPTSGELDVKRAFAKWRRNHNHIWQVLMYARRVFYKIDTASPLNPEAAVLYEKDIQLFKSKVVDSVKVCTARLFDQPKIEDPYAISFSPWNPSVHDEAREKMLTQKKPEEQHNKSVHVAGLSWVKPGSVQPFSKEEKTVAT
binds	HA-AKTIP (protein, UniProt Q9H8T0 1-292) MNPFWSMSTSSVRKRSEGEEKTLTGDVKTSPPRTAPKKQLPSIPKNALPITKPTSPAPAAQSTNGTHASYGPFYLEYSLLAEFTLVVKQKLPGVYVQPSYRSALMWFGVIFIRHGLYQDGVFKFTVYIPDNYPDGDCPRLVFDIPVFHPLVDPTSGELDVKRAFAKWRRNHNHIWQVLMYARRVFYKIDTASPLNPEAAVLYEKDIQLFKSKVVDSVKVCTARLFDQPKIEDPYAISFSPWNPSVHDEAREKMLTQKKPEEQHNKSVHVAGLSWVKPGSVQPFSKEEKTVAT
